In the supplement of paper PMC9549374:
This is one part of the list. Cut-off read from the data, not from the text of the source: active = 2-fold of DMSO or more and inactive = the rest. Single values of this set are uncertain. Some low values are a fixed figure set by the source, not a measured ratio.

These compounds were tested on CM7/1-hgem mouse ES cell-derived cardiomyocytes (assay: maximal number of mAG-hGem(1/110)-positive cardiomyocytes over 96 h, fold-change vs DMSO; higher = more cardiomyocyte cell cycle activity). Settings: 1 µM; 96 (max over 12 h time points) h.
In the case of `COc1cc2occc2c2oc(=O)ccc12`, the maximal number is reported as inactive: 1.
With `[N-]=[N+]=CC(=O)OC[C@H](N)C(=O)O` the maximal number was inactive: 1.
In the case of `O=c1[nH]c(=O)n(Cl)c(=O)n1Cl`, the maximal number is reported as inactive: 1.
`O=C(NC(=O)c1c(F)cccc1F)Nc1cc(Cl)c(OC(F)(F)C(F)C(F)(F)F)cc1Cl` (stereo unspecified) was tested, and the maximal number was inactive: 1.
With `CC(=O)O[C@H]1CC[C@@]2(C)C(=CC[C@@H]3[C@@H]2CC[C@]2(C)C(=O)CC[C@@H]32)C1` the maximal number was inactive: 1.
In the case of `CCC(C)C(=O)OC1CC2(C)C(c3ccoc3)OC(=O)CC23OC2(C)OC34C(OC(=O)C(C)C)C3(O)C(OC(=O)C5(C)OC5C)C5(C)CC3(O)C(C)(C5CC(=O)OC)C14O2` (stereo unspecified), the maximal number is reported as inactive: 0.
With `NCCc1ccc(O)cc1` the maximal number was inactive: 1.
`COC(C)(C)CCC[C@H](C)C/C=C/C(C)=C/C(=O)OC(C)C` was tested, and the maximal number was inactive: 1.
`CC(C)(C#N)O[C@@H]1O[C@H](CO)[C@@H](O)[C@H](O)[C@H]1O` was tested, and the maximal number was inactive: 1.
For `c1ccc2c(c1)[nH]c1cnccc12`, the maximal number was inactive: 1.
With `CC[C@@]1(O)C[C@H](O)c2c(cc3c(c2O)C(=O)c2c(O)ccc(O)c2C3=O)[C@H]1C(=O)OC` the maximal number was inactive: 1.
For `NC(=O)C[S+]([O-])C(c1ccccc1)c1ccccc1` (stereo unspecified), the maximal number was inactive: 1.
With `CC[C@@]1(O)C[C@H](O[C@H]2C[C@H](N(C)C)[C@H](O)[C@H](C)O2)c2c(cc3c(c2O)C(=O)c2c(O)ccc(O)c2C3=O)[C@H]1C(=O)OC` the maximal number was inactive: 0.
`COc1cc2c(cc1O)C[C@H]1c3c(cc(O)c(OC)c3-2)CCN1C` was tested, and the maximal number was inactive: 1.
With `COC[C@]12CN(C=O)[C@@H]3[C@@H]4[C@H](OC)[C@H]1[C@@]3([C@@H](OC)C[C@H]2O)[C@@H]1C[C@@]2(O)[C@H](OC(=O)c3ccccc3)[C@@H]1[C@]4(OC(C)=O)[C@@H](O)[C@@H]2OC` the maximal number was inactive: 1.
In the case of `CC1(C)C2CC(=O)[C@]3(C)C(CC[C@@]4(C)[C@H](c5ccoc5)OC(=O)C5OC543)[C@@]2(C)[C@@H](O)C[C@H]1O` (stereo partly specified), the maximal number is reported as inactive: 0.5.
With `CC(=O)Oc1ccc(/C=C/c2cc(OC(C)=O)cc(OC(C)=O)c2)cc1` the maximal number was inactive: 1.
`CC(O)(CS(=O)(=O)c1ccc(F)cc1)C(=O)Nc1ccc(C#N)c(C(F)(F)F)c1` (stereo unspecified) was tested, and the maximal number was inactive: 0.
`COc1cc2c(cc1-c1cc3cc4ccoc4cc3oc1=O)OCO2` was tested, and the maximal number was inactive: 1.
For `CNc1ccc(C(=O)CC(O)CCC(C)C2OC(=O)CC(O)CC(=O)CC(O)CC(O)CC(O)CC(O)CC3(O)CC(O)C(C(=O)OC)C(CC(O[C@@H]4O[C@H](C)[C@@H](O)[C@H](N)[C@@H]4O)/C=C/C=C/C=C/C=C/C=C/C=C/C=C/C2C)O3)cc1.COC(=O)C1C(O)CC2(O)CC(O)CC(O)CC(O)CC(O)CC(=O)CC(O)CC(=O)OC(C(C)CCC(O)CC(=O)c3ccc(N)cc3)C(C)/C=C/C=C/C=C/C=C/C=C/C=C/C=C/C(O[C@@H]3O[C@H](C)[C@@H](O)[C@H](N)[C@@H]3O)CC1O2` (stereo partly specified), the maximal number was inactive: 1.
For `COc1ccc2c(c1)[nH]c1c(C)nccc12`, the maximal number was inactive: 1.
`NP(N)(=O)NC(=O)c1ccc(F)cc1` was tested, and the maximal number was inactive: 1.
With `C=C[C@H]1CN2CC[C@H]1C[C@@H]2[C@@H](O)c1ccnc2ccccc12` the maximal number was inactive: 1.
In the case of `CNC1CC(N)C(O)C(OC2OC(CO)C(O)C3OC4(OC(C(N)CO)C(O)C(O)C4O)OC23)C1O` (stereo unspecified), the maximal number is reported as inactive: 1.
`CC[C@@H](C)C(=O)O[C@H]1[C@H](O)[C@H]2[C@@H](CN3C[C@@H](C)CC[C@H]3[C@@]2(C)O)[C@@H]2C[C@]34O[C@]5(O)[C@@H](OC(=O)[C@@](C)(O)CC)CC[C@@]3(C)[C@@H]5[C@@H](OC(C)=O)[C@@H](OC(C)=O)[C@H]4[C@@]21O` was tested, and the maximal number was inactive: 1.
`CC1(C)C2CC(=O)[C@]3(C)C(CC[C@@]4(C)[C@H](c5ccoc5)OC(=O)[C@H]5O[C@]543)[C@@]2(C)C(=O)C[C@H]1O` (stereo partly specified) was tested, and the maximal number was inactive: 1.
`COc1cc2c(cc1OC)[C@@H]1C(=O)c3ccc4oc(C(C)C)cc4c3O[C@@H]1CO2` was tested, and the maximal number was inactive: 1.
`O=c1[nH]c2ccccc2n1CCCN1CCC(n2c(=O)[nH]c3cc(Cl)ccc32)CC1` was tested, and the maximal number was inactive: 1.
In the case of `COc1cc2c(cc1O)CCN[C@@H]2C`, the maximal number is reported as inactive: 0.5.
In the case of `CCC1(C2=NCCN2)Cc2ccccc2O1` (stereo unspecified), the maximal number is reported as active: 4.
For `CC(C)(O)C(Cl)(Cl)Cl`, the maximal number was inactive: 1.
